Experimental data from publication PMC6166740.
Results are given in words; binding and its absence hold for the method and conditions named. In cells and extracts the contact can be indirect. Some results given as binding are weak or reduced against the parent protein; the word gives no strength. Where a sequence is shown, tags or fusion partners need not be part of it.

T1: FLAG-tagged ANKS6 (UniProt Q68DC2)
T1 sequence: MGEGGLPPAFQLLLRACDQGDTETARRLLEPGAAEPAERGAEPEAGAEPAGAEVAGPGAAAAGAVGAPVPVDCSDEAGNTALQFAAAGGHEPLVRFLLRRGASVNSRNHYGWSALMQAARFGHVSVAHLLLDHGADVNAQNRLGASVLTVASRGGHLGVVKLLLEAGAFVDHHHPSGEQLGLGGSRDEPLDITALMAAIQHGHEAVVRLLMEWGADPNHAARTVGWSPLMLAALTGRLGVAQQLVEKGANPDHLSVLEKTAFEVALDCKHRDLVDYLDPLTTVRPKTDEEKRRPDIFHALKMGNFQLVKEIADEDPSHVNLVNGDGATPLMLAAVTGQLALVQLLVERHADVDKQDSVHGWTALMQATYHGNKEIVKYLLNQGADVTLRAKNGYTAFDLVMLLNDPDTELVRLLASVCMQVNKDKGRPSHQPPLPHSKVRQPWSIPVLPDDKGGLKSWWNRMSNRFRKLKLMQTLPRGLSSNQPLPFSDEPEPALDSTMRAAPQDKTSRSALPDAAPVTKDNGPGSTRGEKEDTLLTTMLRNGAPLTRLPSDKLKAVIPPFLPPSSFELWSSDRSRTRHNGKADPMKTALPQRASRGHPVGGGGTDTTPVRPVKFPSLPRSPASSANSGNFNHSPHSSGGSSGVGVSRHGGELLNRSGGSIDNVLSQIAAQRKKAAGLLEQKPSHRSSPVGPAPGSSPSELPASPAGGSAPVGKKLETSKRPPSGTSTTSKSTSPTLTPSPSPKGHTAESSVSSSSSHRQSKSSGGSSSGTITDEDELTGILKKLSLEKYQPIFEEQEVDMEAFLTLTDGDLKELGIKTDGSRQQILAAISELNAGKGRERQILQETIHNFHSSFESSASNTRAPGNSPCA

T2: FLAG-tagged DZIP1 (UniProt Q86YF9)
T2 sequence: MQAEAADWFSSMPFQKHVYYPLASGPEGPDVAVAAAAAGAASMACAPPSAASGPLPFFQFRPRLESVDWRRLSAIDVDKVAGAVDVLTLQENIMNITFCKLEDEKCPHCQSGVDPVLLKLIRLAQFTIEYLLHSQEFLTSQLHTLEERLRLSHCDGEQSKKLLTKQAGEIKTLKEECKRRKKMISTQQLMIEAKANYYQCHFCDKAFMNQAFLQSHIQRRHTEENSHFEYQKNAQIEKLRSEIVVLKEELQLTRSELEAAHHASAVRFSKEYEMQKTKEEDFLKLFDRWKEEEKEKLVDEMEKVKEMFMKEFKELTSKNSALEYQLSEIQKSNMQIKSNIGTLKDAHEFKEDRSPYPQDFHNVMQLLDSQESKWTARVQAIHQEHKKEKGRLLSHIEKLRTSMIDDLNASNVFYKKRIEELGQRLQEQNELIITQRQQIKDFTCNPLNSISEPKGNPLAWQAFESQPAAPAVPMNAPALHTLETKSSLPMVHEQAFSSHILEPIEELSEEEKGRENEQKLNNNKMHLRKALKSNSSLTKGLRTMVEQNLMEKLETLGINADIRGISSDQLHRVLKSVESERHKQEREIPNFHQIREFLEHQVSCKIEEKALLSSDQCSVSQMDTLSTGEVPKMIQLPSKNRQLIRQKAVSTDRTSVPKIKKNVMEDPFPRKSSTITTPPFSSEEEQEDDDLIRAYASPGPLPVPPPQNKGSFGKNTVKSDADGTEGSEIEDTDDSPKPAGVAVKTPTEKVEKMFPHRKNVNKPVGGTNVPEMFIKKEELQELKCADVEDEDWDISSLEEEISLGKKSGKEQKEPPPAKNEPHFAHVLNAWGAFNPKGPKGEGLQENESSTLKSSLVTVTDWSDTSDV

B1: V5-tagged NME3 (enzyme, UniProt Q13232 1-169)
chain: MICLVLTIFANLFPAACTGAHERTFLAVKPDGVQRRLVGEIVRRFERKGFKLVALKLVQASEELLREHYAELRERPFYGRLVKYMASGPVVAMVWQGLDVVRTSRALIGATNPADAPPGTIRGDFCIEVGKNLIHGSDSVESARREIALWFRADELLCWEDSAGHWLYE
B2: V5-tagged ANKS6 (ankyrin repeat and sterile alpha motif domain-containing 6) (protein, UniProt Q68DC2 1-871)
chain: MGEGGLPPAFQLLLRACDQGDTETARRLLEPGAAEPAERGAEPEAGAEPAGAEVAGPGAAAAGAVGAPVPVDCSDEAGNTALQFAAAGGHEPLVRFLLRRGASVNSRNHYGWSALMQAARFGHVSVAHLLLDHGADVNAQNRLGASVLTVASRGGHLGVVKLLLEAGAFVDHHHPSGEQLGLGGSRDEPLDITALMAAIQHGHEAVVRLLMEWGADPNHAARTVGWSPLMLAALTGRLGVAQQLVEKGANPDHLSVLEKTAFEVALDCKHRDLVDYLDPLTTVRPKTDEEKRRPDIFHALKMGNFQLVKEIADEDPSHVNLVNGDGATPLMLAAVTGQLALVQLLVERHADVDKQDSVHGWTALMQATYHGNKEIVKYLLNQGADVTLRAKNGYTAFDLVMLLNDPDTELVRLLASVCMQVNKDKGRPSHQPPLPHSKVRQPWSIPVLPDDKGGLKSWWNRMSNRFRKLKLMQTLPRGLSSNQPLPFSDEPEPALDSTMRAAPQDKTSRSALPDAAPVTKDNGPGSTRGEKEDTLLTTMLRNGAPLTRLPSDKLKAVIPPFLPPSSFELWSSDRSRTRHNGKADPMKTALPQRASRGHPVGGGGTDTTPVRPVKFPSLPRSPASSANSGNFNHSPHSSGGSSGVGVSRHGGELLNRSGGSIDNVLSQIAAQRKKAAGLLEQKPSHRSSPVGPAPGSSPSELPASPAGGSAPVGKKLETSKRPPSGTSTTSKSTSPTLTPSPSPKGHTAESSVSSSSSHRQSKSSGGSSSGTITDEDELTGILKKLSLEKYQPIFEEQEVDMEAFLTLTDGDLKELGIKTDGSRQQILAAISELNAGKGRERQILQETIHNFHSSFESSASNTRAPGNSPCA

How the values were obtained:
[1] = biological target: T1, FLAG-tagged ANKS6; test: co-IP; FLAG-tagged and V5-tagged proteins coexpressed in HEK293T cells (calcium phosphate, 24 h); lysis in 1% Triton X-100, 20 mM Tris pH 7.5, 50 mM NaCl, 50 mM NaF, 15 mM Na4P2O7, 0.1 mM EDTA; anti-FLAG M2 agarose beads 2 h; Western blot with anti-V5 and anti-FLAG
[2] = biological target: T2, FLAG-tagged DZIP1; test: as above

Row | Binder | binding [1] | binding [2]
1 | B1 | binds | 
2 | B2 |  | binds
